# Reference: the supplement of paper PMC12067093, “Discovery and optimisation of a covalent ligand for TRIM25 and its application to targeted protein ubiquitination” (Chemical Science, 2025)
# Chains of the proteins cited; added tags and fusions are not shown. Lines headed by an entry give the natural chain unless they say otherwise; changes in a name come on top.
# UniProt Q5H9R7: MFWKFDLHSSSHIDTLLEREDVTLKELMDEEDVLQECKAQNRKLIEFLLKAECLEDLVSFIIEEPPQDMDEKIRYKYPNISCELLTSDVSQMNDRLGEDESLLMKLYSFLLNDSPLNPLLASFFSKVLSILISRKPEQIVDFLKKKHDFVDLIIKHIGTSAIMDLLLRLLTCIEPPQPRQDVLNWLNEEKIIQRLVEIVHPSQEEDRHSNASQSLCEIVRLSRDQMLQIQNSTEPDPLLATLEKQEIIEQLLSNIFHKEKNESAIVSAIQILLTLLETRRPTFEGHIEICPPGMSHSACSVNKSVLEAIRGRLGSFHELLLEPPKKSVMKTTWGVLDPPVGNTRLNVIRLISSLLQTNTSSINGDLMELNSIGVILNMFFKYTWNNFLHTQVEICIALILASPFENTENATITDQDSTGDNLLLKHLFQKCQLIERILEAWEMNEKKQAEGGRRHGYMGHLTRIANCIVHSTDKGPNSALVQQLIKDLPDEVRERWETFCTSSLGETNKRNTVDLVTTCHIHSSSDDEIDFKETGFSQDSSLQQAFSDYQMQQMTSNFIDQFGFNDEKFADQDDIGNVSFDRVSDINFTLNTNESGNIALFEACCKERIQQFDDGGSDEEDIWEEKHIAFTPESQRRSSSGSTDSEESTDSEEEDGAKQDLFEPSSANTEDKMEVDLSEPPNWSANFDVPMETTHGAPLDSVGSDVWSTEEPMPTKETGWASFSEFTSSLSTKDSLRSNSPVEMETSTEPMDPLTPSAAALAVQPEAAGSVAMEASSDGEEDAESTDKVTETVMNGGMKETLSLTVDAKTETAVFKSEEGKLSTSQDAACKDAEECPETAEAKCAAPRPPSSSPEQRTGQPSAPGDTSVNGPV
# UniProt P48147: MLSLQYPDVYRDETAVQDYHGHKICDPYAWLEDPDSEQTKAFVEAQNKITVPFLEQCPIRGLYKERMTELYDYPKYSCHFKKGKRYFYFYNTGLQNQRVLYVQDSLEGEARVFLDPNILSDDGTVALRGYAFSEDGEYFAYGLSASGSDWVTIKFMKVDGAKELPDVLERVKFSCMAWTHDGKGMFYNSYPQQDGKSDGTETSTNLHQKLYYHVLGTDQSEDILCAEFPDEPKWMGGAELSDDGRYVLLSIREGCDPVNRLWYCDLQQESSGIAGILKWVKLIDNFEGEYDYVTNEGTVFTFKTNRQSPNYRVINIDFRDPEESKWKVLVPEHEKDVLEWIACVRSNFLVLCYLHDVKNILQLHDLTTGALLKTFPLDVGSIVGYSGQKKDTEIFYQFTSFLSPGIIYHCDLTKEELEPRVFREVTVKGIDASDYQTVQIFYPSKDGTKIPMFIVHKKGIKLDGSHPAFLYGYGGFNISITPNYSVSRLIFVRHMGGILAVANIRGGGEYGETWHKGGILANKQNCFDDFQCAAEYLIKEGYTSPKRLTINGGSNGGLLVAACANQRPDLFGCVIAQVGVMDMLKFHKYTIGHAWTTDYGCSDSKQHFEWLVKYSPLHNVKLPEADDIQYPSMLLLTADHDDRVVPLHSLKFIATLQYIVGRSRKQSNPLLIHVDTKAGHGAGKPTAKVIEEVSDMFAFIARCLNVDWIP
# UniProt P50336: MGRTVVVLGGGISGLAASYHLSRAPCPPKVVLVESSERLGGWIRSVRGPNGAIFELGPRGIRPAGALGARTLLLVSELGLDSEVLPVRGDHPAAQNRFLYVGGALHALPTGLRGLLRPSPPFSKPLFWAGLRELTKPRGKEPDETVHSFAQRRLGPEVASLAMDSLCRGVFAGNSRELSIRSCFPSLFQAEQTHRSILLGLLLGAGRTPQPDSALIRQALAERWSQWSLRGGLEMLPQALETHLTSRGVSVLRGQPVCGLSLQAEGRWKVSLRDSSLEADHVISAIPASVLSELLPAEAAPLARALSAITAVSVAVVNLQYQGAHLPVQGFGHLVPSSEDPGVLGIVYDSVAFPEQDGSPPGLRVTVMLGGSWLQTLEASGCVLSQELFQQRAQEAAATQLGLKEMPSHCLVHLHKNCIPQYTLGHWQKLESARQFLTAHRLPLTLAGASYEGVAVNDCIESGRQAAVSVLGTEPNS
# UniProt O75170: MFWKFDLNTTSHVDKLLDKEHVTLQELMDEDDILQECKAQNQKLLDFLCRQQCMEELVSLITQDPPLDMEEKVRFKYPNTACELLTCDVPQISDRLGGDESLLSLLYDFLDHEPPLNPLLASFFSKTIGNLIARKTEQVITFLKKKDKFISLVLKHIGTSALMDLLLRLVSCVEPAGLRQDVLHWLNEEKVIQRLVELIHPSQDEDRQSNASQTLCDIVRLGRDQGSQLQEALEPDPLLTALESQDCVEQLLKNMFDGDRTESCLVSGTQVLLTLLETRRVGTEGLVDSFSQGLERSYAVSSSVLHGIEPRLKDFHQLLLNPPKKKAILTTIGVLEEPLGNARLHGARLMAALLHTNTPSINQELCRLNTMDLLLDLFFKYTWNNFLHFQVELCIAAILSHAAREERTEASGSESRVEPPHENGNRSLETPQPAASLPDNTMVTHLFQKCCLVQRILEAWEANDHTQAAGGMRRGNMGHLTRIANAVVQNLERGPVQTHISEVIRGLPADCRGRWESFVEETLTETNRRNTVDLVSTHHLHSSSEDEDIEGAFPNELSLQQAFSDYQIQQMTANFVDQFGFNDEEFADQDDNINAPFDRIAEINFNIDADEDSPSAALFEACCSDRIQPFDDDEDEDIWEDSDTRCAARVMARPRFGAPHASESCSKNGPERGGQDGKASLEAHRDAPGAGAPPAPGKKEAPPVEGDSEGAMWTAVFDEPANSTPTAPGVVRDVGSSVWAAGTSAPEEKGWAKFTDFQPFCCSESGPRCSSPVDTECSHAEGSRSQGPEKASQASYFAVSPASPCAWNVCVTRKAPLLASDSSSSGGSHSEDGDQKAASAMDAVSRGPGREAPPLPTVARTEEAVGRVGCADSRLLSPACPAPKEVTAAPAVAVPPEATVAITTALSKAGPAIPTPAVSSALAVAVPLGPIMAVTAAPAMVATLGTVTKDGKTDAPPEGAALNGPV
# UniProt O75688: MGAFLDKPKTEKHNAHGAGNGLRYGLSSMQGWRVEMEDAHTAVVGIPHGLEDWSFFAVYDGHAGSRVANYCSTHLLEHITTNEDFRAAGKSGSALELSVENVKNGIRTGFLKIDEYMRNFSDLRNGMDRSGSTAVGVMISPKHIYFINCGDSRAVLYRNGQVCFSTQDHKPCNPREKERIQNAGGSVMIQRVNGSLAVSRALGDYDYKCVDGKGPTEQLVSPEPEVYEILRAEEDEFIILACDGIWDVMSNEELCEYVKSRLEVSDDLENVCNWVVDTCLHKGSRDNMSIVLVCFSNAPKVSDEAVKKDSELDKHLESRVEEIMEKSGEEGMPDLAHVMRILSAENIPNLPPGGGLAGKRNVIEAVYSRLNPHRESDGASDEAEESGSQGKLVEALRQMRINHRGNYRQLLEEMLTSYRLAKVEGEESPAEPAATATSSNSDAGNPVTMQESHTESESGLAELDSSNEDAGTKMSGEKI
# UniProt P60510: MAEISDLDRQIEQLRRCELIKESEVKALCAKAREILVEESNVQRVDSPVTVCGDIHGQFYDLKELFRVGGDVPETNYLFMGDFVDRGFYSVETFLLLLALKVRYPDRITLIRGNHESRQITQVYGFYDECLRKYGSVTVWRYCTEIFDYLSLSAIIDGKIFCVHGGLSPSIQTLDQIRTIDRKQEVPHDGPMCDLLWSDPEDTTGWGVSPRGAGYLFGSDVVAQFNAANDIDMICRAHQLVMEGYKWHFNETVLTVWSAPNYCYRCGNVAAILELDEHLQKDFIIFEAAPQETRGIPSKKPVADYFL
# UniProt Q9UPN7: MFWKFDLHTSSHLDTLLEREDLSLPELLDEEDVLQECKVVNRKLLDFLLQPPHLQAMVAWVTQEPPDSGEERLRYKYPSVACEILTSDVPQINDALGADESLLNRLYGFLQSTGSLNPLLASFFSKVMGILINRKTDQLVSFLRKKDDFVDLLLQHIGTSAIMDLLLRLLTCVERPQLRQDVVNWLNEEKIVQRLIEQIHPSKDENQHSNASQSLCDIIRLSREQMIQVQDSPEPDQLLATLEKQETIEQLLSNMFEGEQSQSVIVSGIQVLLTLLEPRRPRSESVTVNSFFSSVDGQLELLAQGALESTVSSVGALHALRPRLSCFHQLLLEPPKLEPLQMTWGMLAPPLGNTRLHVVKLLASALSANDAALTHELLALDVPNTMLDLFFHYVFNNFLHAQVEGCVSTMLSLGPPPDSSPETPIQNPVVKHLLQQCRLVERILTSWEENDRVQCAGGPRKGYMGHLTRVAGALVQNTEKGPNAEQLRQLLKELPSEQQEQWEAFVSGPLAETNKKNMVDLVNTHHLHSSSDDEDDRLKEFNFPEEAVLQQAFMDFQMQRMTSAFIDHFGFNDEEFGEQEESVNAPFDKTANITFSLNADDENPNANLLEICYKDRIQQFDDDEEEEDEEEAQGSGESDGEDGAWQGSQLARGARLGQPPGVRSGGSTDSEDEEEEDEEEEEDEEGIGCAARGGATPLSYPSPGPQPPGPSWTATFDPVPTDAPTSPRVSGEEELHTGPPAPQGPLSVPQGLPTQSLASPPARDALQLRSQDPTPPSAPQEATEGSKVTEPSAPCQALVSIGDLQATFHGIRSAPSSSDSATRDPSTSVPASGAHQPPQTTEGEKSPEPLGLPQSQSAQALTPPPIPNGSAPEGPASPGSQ
# UniProt Q9NY27: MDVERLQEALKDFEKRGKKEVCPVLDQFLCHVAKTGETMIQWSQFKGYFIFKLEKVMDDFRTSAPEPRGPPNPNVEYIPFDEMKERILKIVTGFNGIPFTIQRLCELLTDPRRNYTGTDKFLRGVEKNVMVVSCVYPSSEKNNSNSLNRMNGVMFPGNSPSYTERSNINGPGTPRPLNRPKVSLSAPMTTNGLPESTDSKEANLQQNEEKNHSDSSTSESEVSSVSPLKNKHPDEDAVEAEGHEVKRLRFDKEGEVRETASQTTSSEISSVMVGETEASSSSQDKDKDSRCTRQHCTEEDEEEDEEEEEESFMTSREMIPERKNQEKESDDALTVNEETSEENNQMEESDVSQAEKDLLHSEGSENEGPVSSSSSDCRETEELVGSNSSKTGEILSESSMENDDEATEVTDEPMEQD
# UniProt P63098, whole entry, looked up: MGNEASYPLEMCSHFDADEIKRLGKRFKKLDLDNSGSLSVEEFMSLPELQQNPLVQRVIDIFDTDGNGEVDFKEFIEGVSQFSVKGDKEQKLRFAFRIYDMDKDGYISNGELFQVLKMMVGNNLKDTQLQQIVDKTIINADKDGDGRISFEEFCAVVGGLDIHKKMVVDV
# UniProt Q86WC6: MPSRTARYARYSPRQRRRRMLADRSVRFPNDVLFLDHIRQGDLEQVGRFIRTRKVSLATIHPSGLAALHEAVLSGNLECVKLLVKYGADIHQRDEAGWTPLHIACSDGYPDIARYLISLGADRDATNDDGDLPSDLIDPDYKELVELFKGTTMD
# UniProt O00743: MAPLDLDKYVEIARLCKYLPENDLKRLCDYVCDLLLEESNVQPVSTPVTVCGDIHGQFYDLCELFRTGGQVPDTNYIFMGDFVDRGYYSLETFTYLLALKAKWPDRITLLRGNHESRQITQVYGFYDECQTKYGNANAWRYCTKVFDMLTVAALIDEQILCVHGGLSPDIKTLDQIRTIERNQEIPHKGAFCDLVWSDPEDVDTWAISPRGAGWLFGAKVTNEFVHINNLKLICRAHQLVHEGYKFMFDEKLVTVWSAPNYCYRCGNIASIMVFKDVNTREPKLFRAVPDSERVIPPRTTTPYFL
# UniProt Q6ZMI0: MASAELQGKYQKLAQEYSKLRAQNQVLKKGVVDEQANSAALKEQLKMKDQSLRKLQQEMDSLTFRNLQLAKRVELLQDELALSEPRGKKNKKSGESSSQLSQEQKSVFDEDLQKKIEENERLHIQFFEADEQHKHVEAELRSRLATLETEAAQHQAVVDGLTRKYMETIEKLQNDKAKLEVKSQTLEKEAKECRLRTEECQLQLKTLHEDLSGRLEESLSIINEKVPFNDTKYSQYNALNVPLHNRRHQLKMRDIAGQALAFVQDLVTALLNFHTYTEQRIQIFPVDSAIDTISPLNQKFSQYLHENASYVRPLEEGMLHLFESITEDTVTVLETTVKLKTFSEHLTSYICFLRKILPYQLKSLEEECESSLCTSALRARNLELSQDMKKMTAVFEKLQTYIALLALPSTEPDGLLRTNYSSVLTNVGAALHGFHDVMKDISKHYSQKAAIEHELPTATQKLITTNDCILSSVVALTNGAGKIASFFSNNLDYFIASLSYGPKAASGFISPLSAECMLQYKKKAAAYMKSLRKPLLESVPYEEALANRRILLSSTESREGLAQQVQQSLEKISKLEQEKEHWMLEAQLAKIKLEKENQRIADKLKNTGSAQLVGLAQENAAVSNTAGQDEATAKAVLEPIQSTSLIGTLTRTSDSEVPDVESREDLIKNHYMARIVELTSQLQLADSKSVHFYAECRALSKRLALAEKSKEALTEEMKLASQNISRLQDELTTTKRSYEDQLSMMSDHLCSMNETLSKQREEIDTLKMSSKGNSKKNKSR
# This is one part of the list.
# Compound: CC1Cc2ccccc2N1C(=O)C1CCCN(C1)C(=O)CCl (mixture of isomers) [TRIM25 ligand 11 (diastereomer mixture)]
# Assay: probe-labelled cysteine peptide fold change vs DMSO (competition) (log2 fold change); higher = less target engagement (more negative = stronger competition)
# Conditions: THP-1, incubation time: 4 h
# 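Note: competitive chemoproteomic profiling in live THP-1 cells with an iodoacetamide desthiobiotin (IA-DTB) probe, comparing probe-labelled peptide intensities in compound-treated cells against DMSO-treated controls.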
Target,probe-labelled cysteine peptide fold change (10 µM),probe-labelled cysteine peptide fold change (50 µM)
PPP6R3_Q5H9R7_82_YKYPNISCELLTSDVSQMNDR (UniProt Q5H9R7),0.202,-0.216
PREP_P48147_264_LWYCDLQQESSGIAGILK (UniProt P48147),-0.00454,-0.0172
PPOX_P50336_418_NCIPQYTLGHWQK (UniProt P50336),-0.186,-0.0139
PPP6R2_O75170_665_FGAPHASESCSK (UniProt O75170),-0.0129,-0.472
PPP6R2_O75170_264_NMFDGDRTESCLVSGTQVLLTLLETR (UniProt O75170),0.128,-0.117
PPM1B_O75688_172_NGQVCFSTQDHKPCNPR (UniProt O75688),-0.0699,-0.109
PREP_P48147_526_QNCFDDFQCAAEYLIK (UniProt P48147),0.319,0.196
PPP4C_P60510_193_KQEVPHDGPMCDLLWSDPEDTTGWGVSPR (UniProt P60510),-0.118,-0.252
PPP6R1_Q9UPN7_437_HLLQQCR (UniProt Q9UPN7),-0.00543,-0.0738
PPP4R2_Q9NY27_22_EVCPVLDQFLCHVAK (UniProt Q9NY27),0.165,-0.00762
PPP3R1_P63098_154_ISFEEFCAVVGGLDIHK (UniProt P63098),-0.00643,0.0868
PPP1R27_Q86WC6_105_DEAGWTPLHIACSDGYPDIAR (UniProt Q86WC6),-0.0556,0.135
PPP6C_O00743_192_GAFCDLVWSDPEDVDTWAISPR (UniProt O00743),0.0438,-0.191
PPP1R21_Q6ZMI0_351_TFSEHLTSYICFLR (UniProt Q6ZMI0),0.201,0.0173

# Retrieved one by one from above:
Target,probe-labelled cysteine peptide fold change (10 µM),probe-labelled cysteine peptide fold change (50 µM)
PPP6R2_O75170_665_FGAPHASESCSK (UniProt O75170),-0.0129,-0.472
PPP6R3_Q5H9R7_82_YKYPNISCELLTSDVSQMNDR (UniProt Q5H9R7),0.202,-0.216
